Here are results for four sequences from article PMC9609998.

In general, Kd refers to the concentration at which binding is half-saturated.

The target in data set [1] is EGFR, recombinant human (human) (UniProt P00533). In words: filter binding. Conditions: 2'-fluoro pyrimidines; tissue: selection buffer, 2% BSA +/- 100 µg/mL yeast tRNA block, 1 h on ice; aptamers denatured at 95 °C 3 min then ice 5 min; buffer composition; recombinant protein; label: 32P; synthetic backbone.
Data set [2] has as its target EGFR (in human FFPE glioblastoma sections) (human) (UniProt P00533). The data set is described as follows: aptahistofluorescence. Conditions: 2'-fluoro pyrimidines (2'F-RNA), tissue: selection buffer, 2% BSA +/- 100 µg/mL yeast tRNA block, 1 h on ice, aptamers denatured at 95 °C 3 min then ice 5 min, buffer composition, native protein, synthetic backbone.
In data set [3] the target is EGFR (on pancreatic cancer cells) (UniProt P00533). In words: cell binding (method not given). Conditions: EGFR-expressing pancreatic cells; 2'-fluoro pyrimidines; tissue: selection buffer, 2% BSA +/- 100 µg/mL yeast tRNA block, 1 h on ice; aptamers denatured at 95 °C 3 min then ice 5 min; buffer composition; protein on the cell surface; synthetic backbone; cited from earlier work.

Data set [4] addresses EGFR (on MDA-MB-231 breast cancer cells) (UniProt P00533). The data set is described as follows: confocal fluorescence imaging. Conditions: 100 nM aptamer, lower signal than U87 EGFR WT, tracks EGFR level, not detected on MCF7 (no EGFR); 2'-fluoro pyrimidines (2'F-RNA); tissue: selection buffer, 2% BSA +/- 100 µg/mL yeast tRNA block, 1 h on ice; aptamers denatured at 95 °C 3 min then ice 5 min; buffer composition; protein on the cell surface; label: 5'-Cy5; synthetic backbone.

In data set [5] the target is EGFR (on U87MG EGFR WT glioblastoma cells) (UniProt P00533). In words: confocal fluorescence imaging. Conditions: 100 nM aptamer, 30 min, not detected on LN319 (no EGFR); 2'-fluoro pyrimidines (2'F-RNA); tissue: selection buffer, 2% BSA +/- 100 µg/mL yeast tRNA block, 1 h on ice; aptamers denatured at 95 °C 3 min then ice 5 min; buffer composition; protein on the cell surface; label: 5'-Cy5; synthetic backbone.

The exact form of at least one protein or probe is not confirmed. For part of these data: At least one result comes from cells or an extract, where the contact may be indirect.

As to “GGACGGAUUUAAUCGCCGUAGAAAAGCAUGUCAAAGCCGGAACCGUCC [E07, 32P-labeled (cited)]”, the Kd in data set [1] is 2.4 nM.
Take “GGACGGAUUUAAUCGCCGUAGAAAAGCAUGUCAAAGCCGGAACCGUCC [E07-Al488]”: the binding result in data set [2] (GBM sections, multiplexed with H02-Cy5, non-tumoral epileptic brain not labeled, label: 5'-Alexa 488 (Table S1 sequence cell prints Al568)) is given as “binds”.
As for “GGACGGAUUUAAUCGCCGUAGAAAAGCAUGUCAAAGCCGGAACCGUCC [E07 (cited, label not stated)]”, in data set [3], the binding result was “binds”.
“GGACGGAUUUAAUCGCCGUAGAAAAGCAUGUCAAAGCCGGAACCGUCC [E07-Cy5]”: the binding result in data set [2] (FFPE GBM, 500 nM aptamer, label: 5'-Cy5) is reported as “binds”; in data set [4], “binds”; in data set [5], “binds”.
